# Measurements published in patent US12691103B2 (Jinan University, priority 2022, dated 2026).
# How the values were obtained:
# [1] = tested on: synaptonemal complex protein 3 (SYCP3); experiment: Immunofluorescence detection of SYCP3 in frozen sections of testes; conditions: inferred from SYCP3 expression in testes of model mice
# busulfan-modeled mice [2] = conditions: administration group versus model group (no sperm)
# busulfan-modeled mice [3] = tested on: busulfan-modeled mice
# [4] = cited from earlier work
# [5] = intraperitoneal (3, 6 mg/kg) or oral (5 mg/kg) for 7 days, compared with the model group
smiles,measurement,setting,value
"Nc1nc2ccc(OC(F)(F)F)cc2s1 [riluzole, 2-amino-6-trifluomethoxy-benzothiazole]",differentiation of spermatogonium,[1],promotes
same,"sperm in the tubules, HE staining of epididymis",busulfan-modeled mice [2],some sperm regeneration
same,amplitude of lateral head displacement (ALH) of the sperm,busulfan-modeled mice [3]; [5],increasing
same,beat cross frequency (BCF) of the sperm,busulfan-modeled mice [3]; [5],increasing
same,sperm abnormality rate,busulfan-modeled mice [3]; [5],significantly reduces
same,sperm motility rate,busulfan-modeled mice [3]; [5],increases
same,sperm regeneration,busulfan-modeled mice [3]; [5],promotes
same,straight line velocity (VSL) of the sperm,busulfan-modeled mice [3]; [5],increasing
same,straightness (STR) of the sperm,busulfan-modeled mice [3]; [5],increasing
same,number of sperm,"busulfan-modeled mice [3]; intraperitoneal (3, 6 mg/kg) or oral (5 mg/kg) for 7 days, compared with the model group, tail of epididymis",increases
same,sperm survival rate,"busulfan-modeled mice [3]; mouse, in vivo",increases
same,therapeutic effect on the oligospermia,"busulfan-modeled mice [3]; mouse, in vivo",has a therapeutic effect
same,volume of distribution (Vd),[4]; in vivo,about 3.4 L/kg
same,absolute bioavailability,[4]; oral administration,about 60%
